We go through five substances from patent publication US20150037829A1 (MIT, published 2015).

Chains of the proteins cited; added tags and fusions are not shown. Lines headed by an entry give the natural chain unless they say otherwise; changes in a name come on top.
UniProt P48534: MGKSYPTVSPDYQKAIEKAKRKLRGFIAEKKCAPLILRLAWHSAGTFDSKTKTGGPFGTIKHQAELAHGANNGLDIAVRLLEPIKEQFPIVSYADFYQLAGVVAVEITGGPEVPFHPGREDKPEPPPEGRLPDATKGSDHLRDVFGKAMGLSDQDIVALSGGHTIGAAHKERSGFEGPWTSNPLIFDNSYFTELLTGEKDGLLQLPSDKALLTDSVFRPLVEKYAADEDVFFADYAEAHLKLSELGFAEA

What all share (experiment): gel filtration chromatography, self-association
On the technique in general: In gel filtration, larger molecules generally elute earlier.

In assay [1] the target is APX single mutant E112K, N-terminally His6-tagged (Pisum sativum (pea)) (UniProt P48534).
Assay [2] concerns the target APX single mutant A28K, N-terminally His6-tagged (Pisum sativum (pea)) (UniProt P48534).
Assay [3] addresses APX single mutant D229K, N-terminally His6-tagged (Pisum sativum (pea)) (UniProt P48534).
Assay [4] concerns the target APX single mutant K14D, N-terminally His6-tagged (Pisum sativum (pea)) (UniProt P48534).
The target of assay [5] is APX single mutant E228K, N-terminally His6-tagged (Pisum sativum (pea)) (UniProt P48534).

Results are given in words; binding and its absence hold for the method and conditions named. Some entries that bind do so weakly or less than the wild type.

With “APX single mutant E112K, N-terminally His6-tagged (from UniProt P48534 2-250) (enzyme)”, in assay [1], the binding result was “binds”.

Take “APX single mutant A28K, N-terminally His6-tagged (from UniProt P48534 2-250) (enzyme)”: the binding entry in assay [2] was “binds”.

“APX single mutant D229K, N-terminally His6-tagged (from UniProt P48534 2-250) (enzyme)”: in assay [3], the binding entry is recorded as “binds”.

Consider “APX single mutant K14D, N-terminally His6-tagged (from UniProt P48534 2-250) (enzyme)”, for which the binding result in assay [4] is given as “binds”.

With “APX single mutant E228K, N-terminally His6-tagged (from UniProt P48534 2-250) (enzyme)”, the binding result in assay [5] is on record as “binds”.
